Experimental data: PubChem BioAssay AID248 (DTP/NCI, 2004)
The list is a part of this screen's results and no random one: it gathers tests that were run many times, whatever their T/C, doses with no T/C, and many T/C values between a quarter and a half above the control. Further doses and runs are listed elsewhere. T/C is the treated group as % of the vehicle group. Some doses have a count of surviving animals in place of a T/C: the source holds a T/C of zero for them, seemingly a mark for toxic or unscored doses. Some survivor counts are full or nearly so, which does not show that the dose was tolerated: the source hardly ever lists a survival T/C far under the control, and the zero likely stands for such cases as well. Counts of survivors are from the toxicity check (mostly the fifth day) where no day follows; animals may have died later. Schedule codes are those of the source, taken here to give the interval after Q, in days (D) or hours (H), and the number of doses after X. Some entries hold several experiments; the results are listed from low to high. Some schedules carry Z or #; the key to these is not given. Where survival is the endpoint, this PubChem deposit counts one and a half times the control or more as active, and values a quarter to a half above the control carry no call in these data; other NCI protocols may use other cut-offs. Some T/C values are followed by the survivors on the day toxicity was checked, most often the fifth; where none is given, no animal had died by that day.

System: L1210 leukemia ip in BDF1 mice, survival T/C
Test: NCI In Vivo Anticancer Drug Screen. Data for tumor model L1210 Leukemia (intraperitoneal) in B6D2F1 (BDF1) mice
Details: T/C endpoint: mean survival time, higher T/C = longer survival
[1] = dose: 400.0 mg/kg/injection, schedule: Q01DX001 (ip), vehicle: carboxymethylcellulose (CMC)
[2] = dose: 150.0 mg/kg/injection, schedule: Q01DX001 (ip), vehicle: saline
[3] = dose: 300.0 mg/kg/injection, schedule: Q01DX001 (ip), vehicle: saline
[4] = dose: 200.0 mg/kg/injection, schedule: Q01DX009 (ip), vehicle: saline with Tween-80
[5] = dose: 400.0 mg/kg/injection, schedule: Q01DX001 (ip), vehicle: saline
[6] = dose: 400.0 mg/kg/injection, schedule: Q04DX003 (ip), vehicle: saline
[7] = dose: 400.0 mg/kg/injection, schedule: Q04DX003 (ip), vehicle: saline with Tween-80
[8] = dose: 100.0 mg/kg/injection, schedule: Q04DX002 (ip), vehicle: saline with Tween-80
[9] = dose: 200.0 mg/kg/injection, schedule: Q01DX001 (ip), vehicle: saline
[10] = dose: 200.0 mg/kg/injection, schedule: Q01DX009 (ip), vehicle: Klucel (hydroxypropylcellulose) (HPC)

`Cc1ccc2nc(NC(=O)N(CCCl)N=O)sc2c1` was tested, and the T/C (dose: 35.0 mg/kg/injection, schedule: Q01DX001 (ip), vehicle: other) was 127 % of control, the T/C (dose: 52.0 mg/kg/injection, schedule: Q01DX001 (ip), vehicle: other) was 138 % of control and the T/C (dose: 79.0 mg/kg/injection, schedule: Q01DX001 (ip), vehicle: other) was 138 % of control. For the same compound, the T/C (dose: 80.0 mg/kg/injection, schedule: Q01DX001 (ip), vehicle: carboxymethylcellulose (CMC)) was 130 % of control, the T/C (dose: 100.0 mg/kg/injection, schedule: Q01DX001 (ip), vehicle: carboxymethylcellulose (CMC)) was 140 % of control and the T/C (dose: 120.0 mg/kg/injection, schedule: Q01DX001 (ip), vehicle: carboxymethylcellulose (CMC)) was 143 % of control. For the same compound, the T/C (dose: 177.0 mg/kg/injection, schedule: Q01DX001 (ip), vehicle: carboxymethylcellulose (CMC)) was 145 % of control, the T/C (dose: 177.0 mg/kg/injection, schedule: Q01DX006 (ip), vehicle: other) was 125 % of control and the T/C (dose: 177.0 mg/kg/injection, schedule: Q01DX009 (ip), vehicle: carboxymethylcellulose (CMC)) was 144 % of control. The T/C (dose: 266.0 mg/kg/injection, schedule: Q01DX001 (ip), vehicle: carboxymethylcellulose (CMC)) was 145 % of control, the T/C [1] was 140 % of control and the survivor count (dose: 400.0 mg/kg/injection, schedule: Q01DX009 (ip), vehicle: carboxymethylcellulose (CMC)) was 6 of 6. The T/C (dose: 600.0 mg/kg/injection, schedule: Q01DX001 (ip), vehicle: carboxymethylcellulose (CMC)) was 148 % of control [5 of 6 alive] and the survivor count (dose: 600.0 mg/kg/injection, schedule: Q01DX009 (ip), vehicle: carboxymethylcellulose (CMC)) was 3 of 6.
`Cc1ccc(CN=C(N)CSS(=O)(=O)O)cc1C` was tested, and the survivor count (dose: 400.0 mg/kg/injection, schedule: Q04DX002 (ip), vehicle: Klucel (hydroxypropylcellulose) (HPC)) was 3 of 3.
`CN(N=Nc1ccc(C(=N)N)cc1)C1CCCCC1` was tested, and the survivor count (dose: 75.0 mg/kg/injection, schedule: Q01DX001 (ip), vehicle: saline) was 0 of 6, the survivor count [2] was 0 of 6 and the survivor count [3] was 0 of 6.
In the case of `CC12CCC(CC1)C2CO` (centres undefined), the survivor count [4] is reported as 6 of 6.
For `O=C(O)C(F)(F)C(F)(Cl)C(F)(F)C(F)(Cl)C(F)(F)C(F)(Cl)C(F)(F)Cl` (centres undefined), the survivor count [5] was 0 of 6.
For `CC1NCCC1CO` (centres undefined), the survivor count [6] was 0 of 6.
In the case of `CCSC(C(O)C(O)C(O)C(O)CO)n1ccc(=O)[nH]c1=O` (centres undefined), the survivor count (dose: 100.0 mg/kg/injection, schedule: Q01DX009 (ip), vehicle: saline) is reported as 6 of 6.
`COc1ccc(C(c2ccc(OC)cc2)c2cccc([N+](=O)[O-])c2)cc1` was tested, and the survivor count [7] was 5 of 6.
In the case of `CC/C(=N/N=C(N)N)c1ccc(F)cc1`, the survivor count (dose: 120.0 mg/kg/injection, schedule: Q01DX Z (oral), vehicle: carboxymethylcellulose (CMC)) is reported as 0 of 6.
In the case of `CCOC(=O)C(C)(O)C(C)(Cl)c1ccccc1` (centres undefined), the T/C (dose: 100.0 mg/kg/injection, schedule: Q04DX002 (ip), vehicle: saline) is reported as 125 and 134 % of control.
For `C=CS(=O)(=O)c1ccc([N+](=O)[O-])cc1`, the survivor count [8] was 0 of 3, the survivor count (dose: 200.0 mg/kg/injection, schedule: Q04DX002 (ip), vehicle: saline with Tween-80) was 0 of 3 and the survivor count (dose: 400.0 mg/kg/injection, schedule: Q04DX002 (ip), vehicle: saline with Tween-80) was 0 of 3.
With `O=C(CS)CS` the survivor count (dose: 100.0 mg/kg/injection, schedule: Q01DX009 (ip), vehicle: water) was 3 of 6, the survivor count (dose: 100.0 mg/kg/injection, schedule: Q04DX003 (ip), vehicle: water) was 5 of 6 and the survivor count (dose: 200.0 mg/kg/injection, schedule: Q01DX009 (ip), vehicle: water) was 0 of 6. The survivor count (dose: 200.0 mg/kg/injection, schedule: Q04DX003 (ip), vehicle: water) was 1 of 6 and the survivor count (dose: 400.0 mg/kg/injection, schedule: Q04DX003 (ip), vehicle: water) was 0 of 6.
For `CCN(CC)CCN(C)CCN(CC)CC`, the survivor count [6] was 2 of 6.
With `CC1(C)N=C(N)N=C(N)N1c1cccc(CCCCCc2ccccc2)c1` the survivor count (dose: 50.0 mg/kg/injection, schedule: Q01DX001 (ip), vehicle: saline) was 2 of 6, the survivor count (dose: 100.0 mg/kg/injection, schedule: Q01DX001 (ip), vehicle: saline) was 0 of 6 and 1 of 6 and the survivor count [9] was 0 of 6. The survivor count [5] was 0 of 6.
In the case of `O=[N+]([O-])c1ccc(OC(=S)Cl)cc1`, the survivor count (dose: 25.0 mg/kg/injection, schedule: Q04DX002 (ip), vehicle: saline with Tween-80) is reported as 3 of 3, the survivor count (dose: 50.0 mg/kg/injection, schedule: Q04DX002 (ip), vehicle: saline with Tween-80) is reported as 3 of 3 and the survivor count [8] is reported as 3 of 3. For the same compound, the survivor count (dose: 200.0 mg/kg/injection, schedule: Q04DX003 (ip), vehicle: saline with Tween-80) was 3 of 6 and the survivor count [7] was 3 of 6.
For `N#C/C(=C/c1c(Cl)cccc1Cl)C(N)=O`, the survivor count [2] was 2 of 6 and the survivor count [3] was 0 of 6.
For `CCCCN(CCCC)CN(CCCC)CCCC`, the survivor count (dose: 100.0 mg/kg/injection, schedule: Q01DX009 (ip), vehicle: saline with Tween-80) was 2 of 6, the survivor count [4] was 0 of 6 and the survivor count (dose: 400.0 mg/kg/injection, schedule: Q01DX009 (ip), vehicle: saline with Tween-80) was 0 of 6. For the same compound, the survivor count (dose: 400.0 mg/kg/injection, schedule: Q04DX002 (ip), vehicle: saline) was 3 of 3.
In the case of `COc1ccc(N=CN(C)C)cc1`, the survivor count [9] is reported as 0 of 4 and the survivor count [5] is reported as 0 of 4.
With `CC(C)=CN1CCOCC1` the survivor count [10] was 3 of 6 and the survivor count (dose: 400.0 mg/kg/injection, schedule: Q01DX009 (ip), vehicle: Klucel (hydroxypropylcellulose) (HPC)) was 0 of 6.
`COc1ccc(S(=O)(=O)NC(=O)NC23CC4CC(CC(C4)C2)C3)cc1` was tested, and the survivor count [10] was 6 of 6.
`CO[C@H]1[C@H](O)[C@H](O[C@H]2CC[C@@]3(C)[C@H](CC[C@@H]4[C@@H]3CC[C@]3(C)[C@@H](C5=CC(=O)OC5)CC[C@]43O)C2)O[C@@H](C)[C@@H]1O` was tested, and the survivor count (dose: 5.0 mg/kg/injection, schedule: Q01DX001 (ip), vehicle: saline) was 3 of 6, the survivor count (dose: 10.0 mg/kg/injection, schedule: Q01DX001 (ip), vehicle: saline) was 1 of 6 and the survivor count (dose: 20.0 mg/kg/injection, schedule: Q01DX001 (ip), vehicle: saline) was 0 of 6. The survivor count (dose: 40.0 mg/kg/injection, schedule: Q01DX001 (ip), vehicle: saline) was 0 of 6 and the survivor count (dose: 80.0 mg/kg/injection, schedule: Q01DX001 (ip), vehicle: saline) was 0 of 6.
In the case of `O=C(/C=C\c1ccc(/C=C/C(=O)Nc2cccc(C3=NCCCN3)c2)cc1)Nc1cccc(C2=NCCCN2)c1`, the T/C (dose: 1.25 mg/kg/injection, schedule: Q01DX Z (ip), vehicle: carboxymethylcellulose (CMC)) is reported as 129 % of control, the T/C (dose: 2.5 mg/kg/injection, schedule: Q01DX Z (ip), vehicle: carboxymethylcellulose (CMC)) is reported as 129 % of control and the survivor count (dose: 7.5 mg/kg/injection, schedule: Q01DX Z (ip), vehicle: water) is reported as 0 of 6. For the same compound, the survivor count (dose: 10.0 mg/kg/injection, schedule: Q01DX Z (ip), vehicle: water) was 0 of 6, the survivor count (dose: 15.0 mg/kg/injection, schedule: Q01DX Z (ip), vehicle: water) was 0 of 6 and the survivor count (dose: 25.0 mg/kg/injection, schedule: Q01DX Z (ip), vehicle: water) was 0 of 6.
In the case of `CCCCN(C)N=Nc1ccccc1C(=O)OC`, the survivor count [1] is reported as 2 of 4.
With `Cc1ccccc1[P+](Cc1ccccc1)(c1ccccc1C)c1ccccc1C` the survivor count (dose: 75.0 mg/kg/injection, schedule: Q01DX001 (ip), vehicle: carboxymethylcellulose (CMC)) was 0 of 6, the survivor count (dose: 150.0 mg/kg/injection, schedule: Q01DX001 (ip), vehicle: carboxymethylcellulose (CMC)) was 0 of 6 and the survivor count (dose: 300.0 mg/kg/injection, schedule: Q01DX001 (ip), vehicle: carboxymethylcellulose (CMC)) was 0 of 6.
